Entries after “also recorded” stand apart in the source; their conditions may differ. At least one structure is not confirmed: it was looked up by name or label, or the drawing left a doubt. Starred links: 1 amine or outer side, 2 acyl side, 3 side chain; linkers in the order of their positions; H or OH if unused. Non-standard residues stand in square brackets, D forms with d. Residues, ends and D or L forms follow the SMILES beside them. X1 = N=C(N)NC(=O)c1nc(Cl)c(N(CC(=O)[*:2])[*:1])nc1N
Columns and labels:
NHE1 and NCX = assay: Relative activity on NHE and NCX (Table 1); conditions: novel amiloride conjugates
NHE1 = NHE1 (Homo sapiens, UniProt P19634); assay: NHE1 inhibition: sodium-dependent pHi recovery in BCECF-loaded U87 glial cells after ammonium chloride pre-pulse; type: cell-based; parameters: Sodium-dependent proton extrusion in U87 glial cells and in primary astrocytes is mediated by the type 1 sodium proton exchanger (NHE1); endogenous in cells; host or cells: U87 human glioma cells; conditions: for Relative Potency: NHE inhibition relative to amiloride = 1
Procedure: Intracellular pH Measurements. U87 glial cells were grown on glass coverslips and incubated for 30 minutes at 37° C. with the pH-sensitive dye, 2′,7′-bis(2-carboxyethyl)-5(6)-carboxyfluorescein-AM (BCECF-AM; Molecular Probes, OR). Cells were rinsed with HEPES Ringer buffer twice and maintained at 37° C. for an additional 15 minutes to permit intracellular hydrolysis of the AM ester; trapping BCECF within the cells. Cells on coverslips were placed in a Hitachi F2000 fluorescent spectrophotometer and excited at 440 and 507 nm with fluorescent emissions recorded at 535 nm (Hegde et al., J. Pharmacol. Exp. Ther., 310:67-74 (2004)).
NHE inhibition by compounds 3a and 3c was evaluated using intracellular pH (pHi) measurements in the U87 human glial cell line (Hegde et al., supra). Cells loaded with BCECF were then acidified using the ammonium chloride pre-pulse method (Roos et al., Physiol Rev, 61:296-434 (1981)). The subsequent sodium-dependent recovery of pHi by these cells in the absence of bicarbonate was monitored using a spectrofluorometer. Sodium-dependent proton extrusion in U87 glial cells and in primary astrocytes is mediated by the type 1 sodium proton exchanger (NHE1) (McLean et al., supra; Hegde et al., supra) and was monitored in the presence or absence of compound 3a or 3c.
IC50 drug determinations for NHE1. This method utilizes spectrofluorometric measurements of [H^+]i as described above. The ammonium chloride prepulse method can be used to acidify cells in the presence of HR that is sodium-substituted with NMDG. Perfusion of the acidified cells with HR that contains sodium causes activation of NHE1 that is inhibited in a concentration-dependent fashion as described in McLean et al., supra.

By UniProt entry, the sequences of proteins in these tests, tags left out.
UniProt P19634, whole entry: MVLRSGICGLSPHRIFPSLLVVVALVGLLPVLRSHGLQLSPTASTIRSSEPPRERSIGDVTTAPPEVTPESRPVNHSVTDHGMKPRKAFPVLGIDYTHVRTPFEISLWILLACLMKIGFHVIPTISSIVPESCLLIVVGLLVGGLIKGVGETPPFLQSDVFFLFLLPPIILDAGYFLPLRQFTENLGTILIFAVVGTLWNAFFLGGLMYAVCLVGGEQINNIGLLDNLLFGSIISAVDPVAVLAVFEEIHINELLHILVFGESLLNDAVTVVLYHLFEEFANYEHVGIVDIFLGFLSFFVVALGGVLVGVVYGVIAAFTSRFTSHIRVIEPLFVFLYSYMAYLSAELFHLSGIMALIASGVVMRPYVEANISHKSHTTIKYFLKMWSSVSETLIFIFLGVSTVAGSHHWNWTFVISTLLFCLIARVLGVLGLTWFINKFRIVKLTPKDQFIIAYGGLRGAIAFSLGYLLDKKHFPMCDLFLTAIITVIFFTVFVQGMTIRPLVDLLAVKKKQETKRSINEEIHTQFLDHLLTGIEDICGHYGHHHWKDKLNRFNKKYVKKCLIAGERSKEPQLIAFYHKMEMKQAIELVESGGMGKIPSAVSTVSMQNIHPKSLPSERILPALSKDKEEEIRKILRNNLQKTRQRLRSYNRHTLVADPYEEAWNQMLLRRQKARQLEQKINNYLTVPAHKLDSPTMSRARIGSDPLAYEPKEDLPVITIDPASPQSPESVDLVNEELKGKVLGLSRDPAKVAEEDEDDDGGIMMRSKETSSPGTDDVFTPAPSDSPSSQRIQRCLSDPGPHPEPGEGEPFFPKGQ

Structure (SMILES) | Rel. Activity (NHE1 and NCX) | Relative Potency (NHE1) | Reversal of NHE1 inhibition after removal of compound (NHE1; U87 cells) | Concentration that inhibited NHE1 (NHE1; U87 glioma cells containing BCECF, spectrofluorometry) [µM] | Potency of NHE1 inhibition relative to amiloride (NHE1; glioma cells) | Time to restore steady-state pHi after washout (NHE1; U87 cells) | Potency of NHE1 inhibition relative to amiloride (NHE1; U87 glial cells) | NHE1 inhibition (NHE1; U87 glial cells, up to 100 μM)
N=C(N)NC(=O)c1nc(Cl)c(NCC(=O)O)nc1N [Compound 3a] | NHE >> NCX | 4 | rapidly reversed | ≤ 10 | greater than 4 times | – | – | –
NC(N)=NC(=O)c1nc(Cl)c(NCC(=O)O)nc1N [Compound 3a] | – | – | rapidly reversed | – | – | less than 1 min | at least 4 fold | –
CC(C)C[C@H](NC(=O)[C@H](Cc1ccccc1)NC(=O)CNC(=O)CNC(=O)CNC(=O)CNc1nc(N)c(C(=O)NC(=N)N)nc1Cl)C(=O)O [Compound 3c, C5am-Gly-Gly-Gly-Gly-Phe-Leu-OH] (H-[X1]GGGFL-OH) | – | <0.5 | – | – | – | – | – | did not inhibit; also recorded: essentially inactive

— patent US7863415B2 (The Regents of the University of California, priority 2004, dated 2011)
